# Measurements as given in article PMC12469452.
# Sequences of proteins named here, by UniProt entry; tags and fusion partners are left off.
# UniProt O46036: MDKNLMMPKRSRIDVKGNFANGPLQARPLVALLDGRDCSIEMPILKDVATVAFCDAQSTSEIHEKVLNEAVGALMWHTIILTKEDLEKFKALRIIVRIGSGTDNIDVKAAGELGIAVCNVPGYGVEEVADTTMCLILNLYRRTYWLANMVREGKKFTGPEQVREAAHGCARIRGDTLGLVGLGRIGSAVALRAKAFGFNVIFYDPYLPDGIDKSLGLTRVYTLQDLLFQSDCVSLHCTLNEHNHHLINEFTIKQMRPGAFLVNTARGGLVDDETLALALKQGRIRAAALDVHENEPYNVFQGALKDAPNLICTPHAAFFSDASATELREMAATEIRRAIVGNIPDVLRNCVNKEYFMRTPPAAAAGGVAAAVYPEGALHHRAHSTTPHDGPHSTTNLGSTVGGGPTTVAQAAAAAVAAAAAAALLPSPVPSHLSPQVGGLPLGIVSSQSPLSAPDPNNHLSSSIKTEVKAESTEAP
# Results are given in words; binding and its absence hold for the method and conditions named. In cells and extracts the contact can be indirect. Some results given as binding are weak or reduced against the parent protein; the word gives no strength. Where a sequence is shown, tags or fusion partners need not be part of it.
# Target: T1, EGFP-Tsh fusion protein (Teashirt tagged with EGFP at the genomic tsh gene) (Drosophila melanogaster (endogenous in third instar eye–antennal discs)) (UniProt P22265)
# T1 sequence: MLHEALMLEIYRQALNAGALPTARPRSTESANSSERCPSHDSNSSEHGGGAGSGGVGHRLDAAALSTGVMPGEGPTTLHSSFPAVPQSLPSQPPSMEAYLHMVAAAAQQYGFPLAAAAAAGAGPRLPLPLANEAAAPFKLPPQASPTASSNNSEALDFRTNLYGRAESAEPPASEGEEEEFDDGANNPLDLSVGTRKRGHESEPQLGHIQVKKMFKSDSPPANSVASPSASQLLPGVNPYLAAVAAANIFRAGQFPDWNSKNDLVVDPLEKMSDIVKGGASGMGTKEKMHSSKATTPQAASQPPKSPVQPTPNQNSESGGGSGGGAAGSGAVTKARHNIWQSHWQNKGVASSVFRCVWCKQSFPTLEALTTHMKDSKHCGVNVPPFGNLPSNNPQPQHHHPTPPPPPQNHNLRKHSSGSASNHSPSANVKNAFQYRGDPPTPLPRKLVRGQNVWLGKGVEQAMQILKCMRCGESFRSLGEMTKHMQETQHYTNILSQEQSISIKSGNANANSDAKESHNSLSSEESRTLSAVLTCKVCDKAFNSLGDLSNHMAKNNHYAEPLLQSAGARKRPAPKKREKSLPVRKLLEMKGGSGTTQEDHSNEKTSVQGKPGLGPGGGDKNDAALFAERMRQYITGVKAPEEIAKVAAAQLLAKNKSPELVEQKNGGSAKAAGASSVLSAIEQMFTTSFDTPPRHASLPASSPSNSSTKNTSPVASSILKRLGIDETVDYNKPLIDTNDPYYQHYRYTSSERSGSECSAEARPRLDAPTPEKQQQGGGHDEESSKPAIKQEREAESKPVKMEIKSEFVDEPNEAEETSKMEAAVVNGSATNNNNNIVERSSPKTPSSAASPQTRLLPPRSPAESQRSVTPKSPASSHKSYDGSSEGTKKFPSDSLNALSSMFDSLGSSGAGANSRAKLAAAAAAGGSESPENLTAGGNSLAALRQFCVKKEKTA
# Assay: co-IP; lysate (RIPA buffer) of 250 third instar larval eye–antennal discs of EGFP-tsh flies; rabbit anti-EGFP antibody and Dynabeads Protein-G at RT; Western blot with anti-CtBP antibody; control: Protein G beads without antibody
substance,measurement,value
"C-terminal Binding Protein (CtBP), 50 kDa long isoform (from UniProt O46036 1-476)",binding,binds
